The text below walks through data of PubChem BioAssay AID1508600 (Functional Genomics Laboratory (NCATS/FGL), 2020).

Hit rate of the full screen: of about 53,000 sequences, about 3,700 (7%) were called active.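 How the source made its calls: active means gene knockdowns whose robust z-score for IL-1 alpha signal is at least 2 or at most -2, so actives lie on both sides; inactive means the rest.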 This is one part of the list.

This assay in a line: Components of the Cytosolic LPS Sensing Pathway: Gene Identification via Genome-wide siRNA Screen.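 Further: robust z of the log signal after scaling to non-targeting control siRNA wells of the plate.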 Particulars: RAW264.7 macrophages, IL-1a HTRF, actives lie on both sides, screened at 100 nM (by protocol), cells primed 5 h with Pam3CSK4 first. In short, it runs like this: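 Knockdown: 100 nM siRNA, 48h, RAW264.7. Stimulation: Pam3CSK4 5 h, then LipidA via TransIT-TKO 24 h. Output: supernatant IL-1a HTRF, negative-control-normalized, log robust z-score; viability by CellTiter-Glo.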
For the sequence CGACCAGAAGUGGUAUGUCTT against Adra2a, the z-score is inactive: -1.03.

As to GGAGCUGAAAAUUGUUACCTT against Tpm2, the z-score is inactive: 0.134.

Turning to GGAUGGAAUUACAAGGGUUTT against Kif1b, the z-score is inactive: 0.399.

Consider GGUGUUAUUUUGAAGAAGATT against Arhgef10, for which the z-score was inactive: -0.0372.

Consider GGUCCUCUGGUUCAACAUUTT against Olfr638, for which the z-score was inactive: -0.405.

As for GGAAAAGGUCAUUAUCAUUTT against Hsf3, the z-score was active: -2.11.

Consider GGUCACUGAACUGUUGCUGTT against Trpc7, for which the z-score was inactive: 1.58.

GGAUAAGCAGUUCUCAAGCTT against Mef2a: the z-score is inactive: -0.545.

As for GGAAGCAUCCAGUGCUAUUTT against Kremen2, the z-score was inactive: 0.203.

For GGAUAUGUUGGAGAAGGACTT against Mri1, the z-score is inactive: -1.86.

For the sequence GGCAACAGCACCAGAAGGATT against Ccl19, the z-score is inactive: -0.843.

GGCAUAGUCGAGGAGAGUGTT against Ahcyl2: the z-score was inactive: 1.04.

Turning to GGUUAUCCGUGGUAACCAUTT against Taok3, the z-score was inactive: 0.78.

As for GGUAUUCUUCCUCCAUGGGTT against Olfr638, the z-score was active: -3.22.

In the case of GGAGGAUCUUGAGUUGGAGTT against Nupr1l, the z-score was active: 2.32.

For GGAGAAAAGGUACGUUGUUTT against Rem1, the z-score was inactive: -1.06.

As for GGCUCCUAUAUACUGAUCATT against Olfr1402, the z-score is active: -2.65.

As to “GGAUGUGUGCAUCACGGGUTT against 1700018B08Rik”, the z-score is inactive: -0.418.

Turning to GGUGUUUGGCUCACAAACCTT against Mmp23, the z-score is inactive: -0.924.

On to GGAAAAAAUGGAGUUAUGUTT against Emc1, for which the z-score is inactive: -0.792.

As to GGUGAAAUCUCUCUGGCCUTT against Panx3, the z-score was inactive: 0.166.

With GGCAUGGAAUCUGUUGUACTT against Olfr603, the z-score is active: 2.45.

With GGUAUACGAACAUGUUUAUTT against Lin7c, the z-score was inactive: 0.0264.

For the sequence GCAUGACAUGCAAAACUACTT against Abhd3, the z-score is inactive: -0.765.

Regarding GGACAGCUUUGAUUUCAUUTT against Nkain4, the z-score was inactive: 0.221.

For GCCAGUUAGGGAACUACGATT against Ttc28, the z-score is inactive: -0.0959.

Consider GCAGUUAUCAGUCGUCAAUTT against Zfp334, for which the z-score was inactive: -0.488.

Take GGCAACACCAUACAGUAUATT against Adh7: the z-score is inactive: 1.61.

Regarding GGAAUCACUGGUAUUAUCGTT against Surf1, the z-score is inactive: 0.805.

Consider CCUGAUCAGAGUCUUAGUATT against Espl1, for which the z-score is inactive: -1.25.

For the sequence GGAGAAUAUAGCAGGAGGUTT against Odf3l1, the z-score was inactive: 0.645.

CCUUUUUGUUGUCUCACUATT against Olfr116: the z-score was inactive: -1.14.

As to GGGAAAGAAAACAAAGGAATT against Arhgap31, the z-score was inactive: -0.196.

As for GCCUAACAUUGAUAUGUUGTT against Ephx3, the z-score is inactive: -0.745.

Regarding GGAAGAAGCCACCUUUUUUTT against Cd2, the z-score is inactive: -0.391.

As for GCUAAGGACUCAGCAAAACTT against Coq5, the z-score was inactive: 0.733.

Turning to GCUUUAAAUAGAGACUAUCTT against Sox30, the z-score was inactive: 1.15.

On to “GGUCAUCCGAUGCUUUGUATT against 4930515G01Rik”, for which the z-score is inactive: -0.513.

For GGCCUAAAGUAAUUUUGGGTT against Cep162, the z-score is inactive: 0.441.

GGUCAAAAACUUGACUCGUTT against Gnl3l: the z-score was inactive: 0.655.

For the sequence GCUGUCACUUUGAAUCCCUTT against Nrg1, the z-score was inactive: -0.988.

Regarding GGCUUACUACGACACAGACTT against Clk2, the z-score is inactive: -0.192.

As to “GGACUUAAAAGAGGAGAUCTT against 4933434E20Rik”, the z-score is active: 3.73.

With CCGUCAUGAUCUUAAAAGATT against Slc30a8, the z-score was inactive: -0.293.

As to UCUUCGGUCAACUCUAUGGTT against Olfr969, the z-score is inactive: 0.183.

For GGUAUAGCUUGGGCUAUAGTT against Olfr92, the z-score was inactive: 0.494.

Turning to CCAUCAGAUUAUCUAUCUATT against Mapk11, the z-score is inactive: 0.861.

Regarding GGCAUUAAUAUGUCUGACUTT against Tada1, the z-score was inactive: -0.0627.

As for GCAAACGAAAAACAGUGACTT against Nsf, the z-score was inactive: 0.86.

Regarding GCAUUAGGUAUGGUCAAGATT against Cdt1, the z-score is inactive: 0.0757.

As to CCUCAGAGUCCCUAGAAAATT against Fam170a, the z-score was inactive: -0.672.

As to CCAAAACCUCUACCGUUACTT against Cyp3a25, the z-score is inactive: 0.246.

Consider GGAAGACACAUCACCAAAATT against Chaf1a, for which the z-score was inactive: 0.157.

Turning to CGGAAUUUGAACGUGUCUUTT against Cdk9, the z-score is inactive: -1.53.

Regarding GGGCUACCAUAGUGACAAATT against Gja5, the z-score is inactive: -1.79.

In the case of GUCCCUGAAAGAUGAAGAUTT against Tecr, the z-score is inactive: 0.157.

Consider GCUAAGUGACCUCUUUAACTT against Desi1, for which the z-score was inactive: 0.419.

Take GGUAUGACCUCAUUCGGCATT against Fan1: the z-score was inactive: -1.13.

As to GGAGCUGAUCCAGAACAGATT against Ncor2, the z-score is inactive: 0.843.

Take GCCUAGGUUUGAUGAACUATT against Nlgn3: the z-score was inactive: 1.3.

Consider GGAGACCUUCAAGUACUUUTT against Dcakd, for which the z-score was inactive: -0.047.

On to GGAACAAAGACAUUGCUUUTT against Sf3a3, for which the z-score is active: -2.77.

Regarding GGAGGUCGCUUCCUAUUACTT against Tat, the z-score is inactive: -1.65.

Regarding UAUACCUUAGUGCUGAGGGTT against Olfr736, the z-score is inactive: -1.02.

For the sequence GCUGCAACAUGACAUGUCGTT against AU022252, the z-score is inactive: -1.21.

For the sequence GCACUUAUGGACUUCCAGCTT against Cd2ap, the z-score was inactive: 0.405.

Consider CGAAGAGUACUUUUUUAGUTT against Ccdc38, for which the z-score was inactive: -0.672.

As for GGCACUGGAACUAAUAUAUTT against Ormdl2, the z-score is inactive: 0.167.

As for GGAAUCUCCACCAUACAGGTT against Vmn1r26, the z-score was inactive: -0.263.

As for GGAACACAAGCACCUGCAUTT against Corin, the z-score was inactive: -0.564.

GGAAGAUCGGAGACAAAGUTT against Pmaip1: the z-score was inactive: 0.98.

As for CCACAUCGAGGACUGGUAGTT against Lage3, the z-score is inactive: -0.108.

With GGACAAACAUUGGAUUGAUTT against Snrnp40, the z-score is inactive: 1.17.

Consider GGAACCUAAACGAACAAGGTT against Col6a2, for which the z-score is active: 2.18.

For GGCCAAAGCUGAUAUGACATT against Ankef1, the z-score was active: 2.23.

For GGUUCUUCAGGCCACUGAUTT against Dnaaf2, the z-score was inactive: 0.982.

On to CCUAAAAGGAUCUUUCAUGTT against Cpa6, for which the z-score was inactive: 0.117.

Consider GGCUAGAUUUCUGAUUCCCTT against Pigz, for which the z-score is inactive: 0.906.

For the sequence GGAGUACAUCUUAGACAAATT against Tram2, the z-score is inactive: 0.942.

On to GGAGAAGCCAGGAGUUUACTT against Klk6, for which the z-score is inactive: 1.71.

Regarding GGGUCUUCACAUAUCUCAUTT against Tep1, the z-score is inactive: 0.0251.

As for CCCUACAAACCAUCUGGUUTT against Aga, the z-score was inactive: -0.114.

Take CCGUGGGUUUUUUGAAUCUTT against Slc6a1: the z-score is active: 2.63.

On to GGACAACACCUAUUUAGUGTT against Cdk5rap3, for which the z-score is inactive: -1.51.

Consider GCGAAUGAUAGAUCCUGUCTT against Stx17, for which the z-score was inactive: -0.227.

For the sequence GGAACACCAUCAAUAAACUTT against Tjap1, the z-score is active: -2.09.

As for GGAUACAUACUGGACAAAATT against Zfp934, the z-score is inactive: -0.865.

With GGAAGAUGGCACUAUUCUCTT against Pomk, the z-score is inactive: 0.385.

On to GGUUAGUUGGCAAGUGUAATT against Cd1d1, for which the z-score is inactive: 1.25.

On to GCUAGAAAUGAGGUGCGCCTT against Mapkapk5, for which the z-score was inactive: 0.537.

Consider GCGCAUGAAUUCGUGCAACTT against Hoxb6, for which the z-score is inactive: 0.0509.

On to CAGCAGUGCACAGAAAUGGTT against Olfr12, for which the z-score is inactive: 1.07.

For GGAUUAUGACUCCUAGCGCTT against Drap1, the z-score is inactive: -0.751.

As to GGAUUCCAUCUUUGUAUGATT against Cbr4, the z-score is inactive: 0.689.

Regarding CCAUUGAUAUUAAAUCGCUTT against Pik3cg, the z-score is inactive: -0.244.

Take GGUUAUGCCUUCAGUGAAGTT against Prep: the z-score is inactive: -0.14.

Regarding GGUGCCGACAGUAUUUACATT against Zfyve26, the z-score was inactive: 1.25.

Take GGCUAUUAACAUGCAUAGATT against Ear6: the z-score was inactive: 1.78.

Consider GCUAUGCUUAUUGUAUUGATT against Fut11, for which the z-score was inactive: -1.75.

On to GGAGUUAUUCUAGGAAUAUTT against Slc22a26, for which the z-score is inactive: -0.249.

With GGUUUCAUGAAAGAGGAGCTT against Cbs, the z-score is inactive: -0.926.

As for GCUCGAACAUCUCUUGGUCTT against Capn9, the z-score was inactive: 0.186.

Regarding CCACACAUUUAAAAUGGCGTT against Ctsh, the z-score is inactive: -1.37.

In the case of GGCAAACUUUAACUCCACATT against Fastk, the z-score is inactive: -0.976.

On to GCUGGACCCACACAAAAAGTT against Rhbdl3, for which the z-score is inactive: -0.0513.

As for CCAACAGGAGAUACAAUUATT against Pclo, the z-score was inactive: 0.677.

Take GGAUAAUGAAGAAUGCCAATT against Abca4: the z-score was inactive: -0.533.
